From PMC3820264 come the findings set out here.

For the test, the target named is G2320R mutant form of thyroglobulin with three C-terminal Myc tags. Briefly: affinity purification with mass spectrometry; Myc-tagged Tg^rdw precipitated with anti-Myc agarose (ProFound c-Myc Tag IP/Co-IP Kit) from lysates of rib chondrocytes of 5-day-old Col2-Tg^rdw mice; cells treated with 25 mM NEM before lysis in 25 mM Tris-HCl pH 7.4, 150 mM NaCl, 1 mM EDTA, 1% Triton X-100, 5% glycerol, 0.5 mM PMSF; co-precipitating proteins identified by LC-MS/MS.

Results are given in words; binding and its absence hold for the method and conditions named. In cells and extracts the contact can be indirect. These calls come from enrichment with a bait or labelling near it, and not all partners need be listed.

B1: PDIA6 (protein, UniProt Q922R8 20-440)
chain: LYSSSDDVIELTPSNFNREVIQSDGLWLVEFYAPWCGHCQRLTPEWKKAATALKDVVKVGAVNADKHQSLGGQYGVQGFPTIKIFGANKNKPEDYQGGRTGEAIVDAALSALRQLVKDRLGGRSGGYSSGKQGRGDSSSKKDVVELTDDTFDKNVLDSEDVWMVEFYAPWCGHCKNLEPEWAAAATEVKEQTKGKVKLAAVDATVNQVLASRYGIKGFPTIKIFQKGESPVDYDGGRTRSDIVSRALDLFSDNAPPPELLEIINEDIAKKTCEEHQLCVVAVLPHILDTGAAGRNSYLEVLLKLADKYKKKMWGWLWTEAGAQYELENALGIGGFGYPAMAAINARKMKFALLKGSFSEQGINEFLRELSFGRGSTAPVGGGSFPTITPREPWDGKDGELPVEDDIDLSDVELDDLEKDEL
As to B1, the binding entry is recorded as “binds”.
